In article PMC3789969, “The Allosteric Role of the AAA^+ Domain of ChlD Protein from the Magnesium Chelatase of Synechocystis Species PCC 6803” (The Journal of Biological Chemistry, 2013):
These are yes or no findings as the source states them, for the method shown.

Protein sequences, listed by entry. Tags and fused reporters are not part of them. Lines headed by an entry give the natural chain unless they say otherwise; changes in a name come on top.
UniProt P72772: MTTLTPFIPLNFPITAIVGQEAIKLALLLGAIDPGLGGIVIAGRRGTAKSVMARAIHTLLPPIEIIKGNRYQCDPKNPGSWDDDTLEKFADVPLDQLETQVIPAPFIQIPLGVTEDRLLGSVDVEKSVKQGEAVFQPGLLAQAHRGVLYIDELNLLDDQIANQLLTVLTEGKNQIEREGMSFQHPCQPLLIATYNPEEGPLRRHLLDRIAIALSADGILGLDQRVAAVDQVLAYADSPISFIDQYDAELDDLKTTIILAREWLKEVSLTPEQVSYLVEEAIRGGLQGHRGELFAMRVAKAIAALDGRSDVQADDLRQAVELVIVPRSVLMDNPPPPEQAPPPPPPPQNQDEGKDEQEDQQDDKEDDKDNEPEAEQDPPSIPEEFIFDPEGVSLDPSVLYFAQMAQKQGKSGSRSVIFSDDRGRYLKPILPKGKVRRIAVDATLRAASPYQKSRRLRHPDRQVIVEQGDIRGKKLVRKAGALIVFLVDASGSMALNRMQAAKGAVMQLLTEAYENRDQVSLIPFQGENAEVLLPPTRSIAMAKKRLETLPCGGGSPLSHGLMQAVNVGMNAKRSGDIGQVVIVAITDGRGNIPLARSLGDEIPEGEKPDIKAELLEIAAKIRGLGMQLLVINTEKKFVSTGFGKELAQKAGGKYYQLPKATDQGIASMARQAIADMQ

How the values were obtained:
Test in all cases: condition: only in the absence of nucleotide (2 μM ChlI, 2 μM ChlD); pull-down; co-purification on Ni(II) chelating Sepharose through His6-ChlD; 2 μM ChlD and 2 μM ChlI, without nucleotide, 15 mM MgCl2, 50 mM Tricine, 0.3 M glycerol, pH 7.9, room temperature; SDS-PAGE of the resin; both purified
[1] = target: His6-ChlD (E152Q), Walker B mutant (Synechocystis sp. PCC 6803) (UniProt P72772)
[2] = target: His6-ChlD (K49A), Walker A mutant (Synechocystis sp. PCC 6803) (UniProt P72772)
[3] = target: His6-ChlD (R208A), arginine finger mutant (Synechocystis sp. PCC 6803) (UniProt P72772)
[4] = target: His6-ChlD (R289A), Sensor II mutant (Synechocystis sp. PCC 6803) (UniProt P72772)
[5] = target: His6-ChlD, wild type, of the magnesium chelatase of Synechocystis sp. PCC 6803 (Synechocystis sp. PCC 6803) (UniProt P72772)

binding [1]: no binding
binding [2]: no binding
binding [3]: no binding
binding [4]: no binding
binding [5]: no binding
B1: ChlI protein of the magnesium chelatase of Synechocystis sp. PCC 6803 (protein, UniProt P51634 1-357)
chain: MTATLAAPSKTRRVVFPFTAIVGQDEMKLALLLNVIDPKIGGVMIMGDRGTGKSTTIRALADLLPEIEVVANDPFNSSPSDPEMMSEEVRIRVDSQEPLSIVKKKVTMVDLPLGATEDRVCGTIDIEKALSEGVKAFEPGLLAKANRGILYVDEVNLLDDHLVDVLLDSAAGGWNTVEREGISIRHPARFVLVGSGNPEEGELRPQLLDRFGMHAEIRTVREPELRVKIVEQRTEFDQNPHPFCDQYQTEQEALQAKIVNAQNLLPQVTIDYDYRVKVSEVCAELDVDGLRGDIVTNRAAKALAAFEGRTEVTVDDISRVIVLCLRHRLRKDPLESIDSGSKVEKVFKRVFGVVDEA
